Assay results reported in article PMC5485180.
Results are given in words; binding and its absence hold for the method and conditions named. In cells and extracts the contact can be indirect. Some binding calls cover weakened binding; strength is not graded here.

Biological target: T1, Forkhead box subclass M1 (human) (UniProt Q08050)
T1 sequence: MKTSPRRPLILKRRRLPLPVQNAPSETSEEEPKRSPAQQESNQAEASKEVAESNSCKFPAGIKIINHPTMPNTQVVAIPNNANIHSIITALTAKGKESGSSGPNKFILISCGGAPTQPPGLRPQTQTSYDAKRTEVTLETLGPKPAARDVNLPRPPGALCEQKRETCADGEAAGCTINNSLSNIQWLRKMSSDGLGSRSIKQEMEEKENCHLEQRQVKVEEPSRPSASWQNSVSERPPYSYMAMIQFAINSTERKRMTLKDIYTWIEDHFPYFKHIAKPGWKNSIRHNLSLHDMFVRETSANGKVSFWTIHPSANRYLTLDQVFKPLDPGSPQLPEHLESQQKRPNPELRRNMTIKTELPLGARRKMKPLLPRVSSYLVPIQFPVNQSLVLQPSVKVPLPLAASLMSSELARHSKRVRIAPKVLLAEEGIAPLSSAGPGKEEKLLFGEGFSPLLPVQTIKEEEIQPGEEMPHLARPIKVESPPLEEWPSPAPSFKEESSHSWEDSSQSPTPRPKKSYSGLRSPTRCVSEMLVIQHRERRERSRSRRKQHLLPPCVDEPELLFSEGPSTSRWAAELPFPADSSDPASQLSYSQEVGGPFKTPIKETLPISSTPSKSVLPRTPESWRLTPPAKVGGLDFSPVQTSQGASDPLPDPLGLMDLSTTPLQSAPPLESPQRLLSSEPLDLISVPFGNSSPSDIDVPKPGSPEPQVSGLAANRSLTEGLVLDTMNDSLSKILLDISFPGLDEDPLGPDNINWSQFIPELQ
Experiment: co-IP; co-IP assay to detect the interaction of AURKA and FOXM1; cell line, precipitating antibody and buffer not told in the shown text

- binding: binds
B1: Aurora kinase A (enzyme, UniProt O14965 1-403)
chain: MDRSKENCISGPVKATAPVGGPKRVLVTQQFPCQNPLPVNSGQAQRVLCPSNSSQRIPLQAQKLVSSHKPVQNQKQKQLQATSVPHPVSRPLNNTQKSKQPLPSAPENNPEEELASKQKNEESKKRQWALEDFEIGRPLGKGKFGNVYLAREKQSKFILALKVLFKAQLEKAGVEHQLRREVEIQSHLRHPNILRLYGYFHDATRVYLILEYAPLGTVYRELQKLSKFDEQRTATYITELANALSYCHSKRVIHRDIKPENLLLGSAGELKIADFGWSVHAPSSRRTTLCGTLDYLPPEMIEGRMHDEKVDLWSLGVLCYEFLVGKPPFEANTYQETYKRISRVEFTFPDFVTEGARDLISRLLKHNPSQRPMLREVLEHPWITANSSKPSNCQNKESASKQS
